At least one peptide structure holds a part that was inferred or is arguable (an end, a ring closure or a residue).
Assays:
HT-29 tumor [1] = test: Azide expression in cancer tissue via intravenous injection in HT-29 tumor-bearing animal model; assay type: in vivo, nude mice
cathepsin B = cathepsin B (Homo sapiens, UniProt P07858); test: Time-dependent in vitro release of Ac3ManNAz from RR-S-Ac3ManNAz with or without cathepsin B (HPLC); assay type: biochemical; conditions: 500 μM, 37° C.
HT-29 cells [2] = test: Azide expression in HT-29 cells with cathepsin B inhibitor, confocal microscopy; assay type: cell-based, human; conditions: 5 μM, 72 hours, cathepsin B inhibitor 50 μg/L
HT-29 cells [3] = test: Azide expression on HT-29 cell surface, DBCO-Cy5 labeling, confocal microscopy; assay type: cell-based, human
HT-29 cells [4] = test: Azide expression in HT-29 cells with cathepsin B inhibitor, western blot (phosphine-PEG-biotin); assay type: cell-based, human; conditions: 5 μM, 72 hours
HT-29 tumor [5] = test: Azide expression in cancer tissue via intratumoral injection in HT-29 tumor-bearing animal model; assay type: in vivo, nude mice
[6] = system: HDF cells, HUVEC cells, H9C2 cells and HT-29 cells; test: Azide expression in normal cells versus HT-29 cancer cells, confocal microscopy; assay type: cell-based, human; rat (H9C2); conditions: 5 μM, 72 hours, H9C2 versus HT-29
HT-29 cells [7] = test: Azide expression in HT-29 cells with cathepsin B inhibitor, DBCO-Cy5 flow cytometry; assay type: cell-based, human; conditions: 5 μM, 72 hours

CC(=O)N[C@@H](CCCCN)C(=O)NCC(=O)N[C@@H](CCCNC(=N)N)C(=O)N[C@@H](CCCNC(=N)N)C(=O)Nc1ccc(COC(=O)OC[C@H]2OC(OC(C)=O)[C@@H](NC(=O)CN=[N+]=[N-])[C@@H](OC(C)=O)[C@@H]2OC(C)=O)cc1 (some centres unmarked) [RR-S-Ac3ManNAz]
fluorescence intensity in cancer tissue (HT-29 tumor [1]; 32 mg/kg intravenous, FIG. 8B and 8C): fluorescence intensity was higher | near-infrared fluorescence intensity in tumor-bearing left flank (HT-29 tumor [1]; 32 mg/kg tail vein for 3 days, DBCO-Cy5.5 i.v., imaging 24 hours later): significant difference in fluorescence intensity | release of KGRR substrate peptide and Ac3ManNAz from RR-S-Ac3ManNAz (cathepsin B; with cathepsin B 50 μg/mL, 0, 3, 6 and 12 hours): released from RR-S-Ac3ManNAz in a time-dependent manner | release of Ac3ManNAz in reaction solution not containing cathepsin B (cathepsin B; without cathepsin B, up to 12 hours): could not be observed until 12 hours | fluorescence intensity by DBCO-Cy5 in the presence of the cathepsin B inhibitor (HT-29 cells [2]): significant decrease in the fluorescence intensity | time course of fluorescence intensity / azide expression (HT-29 cells [3]; 5 μM, 24-120 hours, DBCO-Cy5): increased gradually up to 72 hours and then decreased | fluorescence signal on the cell surface at 24 hours (HT-29 cells [3]; 5 μM, 24 hours, DBCO-Cy5): strong fluorescence signals | amount of azide reporting monosaccharide expressed onto the surface depending on concentration (HT-29 cells [3]; FIG. 4A): increased with the concentration of RR-S-Ac3ManNAz in a concentration-dependent manner | western blot band intensity compared to untreated HT-29 cells (HT-29 cells [4]): strong band intensities | expression of azide reporting monosaccharide on treatment with cathepsin B inhibitor (western blot) (HT-29 cells [4]; cathepsin B inhibitor): inhibited expression of the azide reporting monosaccharide | near-infrared fluorescence intensity, right flank versus left flank (cathepsin B inhibitor) (HT-29 tumor [5]; 4 mg/kg intratumoral for 4 days, DBCO-Cy5.5 i.v., imaging 24 hours later): significant difference in the fluorescence intensity in the left and right flanks | fluorescence intensity of tumor flanks versus major organs (HT-29 tumor [5]; 4 mg/kg intratumoral, DBCO-Cy5.5 i.v.): higher than that of the major organs | western blot band intensity of azide groups in HT-29 cancer tissue versus saline or cathepsin B inhibitor (HT-29 tumor [5]; FIG. 7E): significantly stronger band intensity | fluorescence intensity of DBCO-Cy5.5 in right cancer tissue relative to left (inhibitor-treated) cancer tissue (HT-29 tumor [5]; fluorescence molecular topography, 4 mg/kg intratumoral): 2.97 folds | red fluorescence of DBCO-Cy5.5 in cancer tissue sections, right versus left (inhibitor) (HT-29 tumor [5]; immunofluorescence staining, FIG. 7D): stronger red fluorescence of DBCO-Cy5.5 | azide expression / fluorescence intensity in normal cells versus cancer cells [6]: azide was expressed only on the surface of the HT-29 cells | mean fluorescence intensity without cathepsin B inhibitor relative to inhibitor-treated cells (HT-29 cells [7]): 10.16 fold

Reference: patent US10213515B2, “Glycopeptide for contrast agent targeting cancer cells and contrast agent kit containing the same” (priority 2015, dated 2019)
